Assay results published in article PMC9242860.
Results are given in words; binding and its absence hold for the method and conditions named. Binding seen in cells or lysates may run through a third protein.

Chains of the proteins cited; added tags and fusions are not shown. Lines headed by an entry give the natural chain unless they say otherwise; changes in a name come on top.
UniProt Q99814: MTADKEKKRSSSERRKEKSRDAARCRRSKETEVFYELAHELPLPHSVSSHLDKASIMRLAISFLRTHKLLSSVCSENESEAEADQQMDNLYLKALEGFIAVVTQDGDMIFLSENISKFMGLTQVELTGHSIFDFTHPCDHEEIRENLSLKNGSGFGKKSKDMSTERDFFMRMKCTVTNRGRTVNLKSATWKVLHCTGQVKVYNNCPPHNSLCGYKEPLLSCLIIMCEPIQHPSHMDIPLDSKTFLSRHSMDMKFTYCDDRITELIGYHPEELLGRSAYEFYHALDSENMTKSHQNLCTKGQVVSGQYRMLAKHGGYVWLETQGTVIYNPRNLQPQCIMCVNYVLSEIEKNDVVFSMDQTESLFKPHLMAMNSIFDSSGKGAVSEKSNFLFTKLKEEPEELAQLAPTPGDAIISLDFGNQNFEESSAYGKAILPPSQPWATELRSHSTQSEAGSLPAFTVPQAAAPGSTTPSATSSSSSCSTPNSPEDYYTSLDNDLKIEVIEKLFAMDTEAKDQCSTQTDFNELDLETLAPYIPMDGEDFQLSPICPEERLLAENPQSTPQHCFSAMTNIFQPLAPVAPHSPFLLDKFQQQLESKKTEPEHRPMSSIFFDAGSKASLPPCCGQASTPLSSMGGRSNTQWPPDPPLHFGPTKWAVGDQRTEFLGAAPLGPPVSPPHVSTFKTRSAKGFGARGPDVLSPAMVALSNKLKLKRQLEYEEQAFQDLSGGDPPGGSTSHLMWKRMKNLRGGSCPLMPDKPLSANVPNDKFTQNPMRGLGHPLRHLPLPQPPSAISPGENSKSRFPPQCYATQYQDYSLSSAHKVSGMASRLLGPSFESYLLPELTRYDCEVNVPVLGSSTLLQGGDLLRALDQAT
UniProt Q06710: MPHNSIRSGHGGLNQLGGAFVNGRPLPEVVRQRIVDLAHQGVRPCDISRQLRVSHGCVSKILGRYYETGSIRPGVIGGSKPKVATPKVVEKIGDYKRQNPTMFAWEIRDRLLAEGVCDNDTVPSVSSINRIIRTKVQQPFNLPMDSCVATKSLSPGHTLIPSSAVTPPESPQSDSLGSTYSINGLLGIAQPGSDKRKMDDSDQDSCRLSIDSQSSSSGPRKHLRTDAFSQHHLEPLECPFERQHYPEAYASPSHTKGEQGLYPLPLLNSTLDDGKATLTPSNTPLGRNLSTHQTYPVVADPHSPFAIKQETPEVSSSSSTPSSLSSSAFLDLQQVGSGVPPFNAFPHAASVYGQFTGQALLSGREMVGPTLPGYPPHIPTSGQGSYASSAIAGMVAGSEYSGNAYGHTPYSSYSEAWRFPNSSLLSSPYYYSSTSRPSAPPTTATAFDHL

Target: HIF2A reintroduced in C-M1A^HIF2A-/- cells by a doxycycline-dependent transgene (UniProt Q99814)
Experiment: co-IP; antibodies targeting HIF2A and PAX8; C-M1A^HIF2A-/- cells with HIF2A reintroduction

**Q.** How did the binding turn out when “paired box 8 (PAX8) (from UniProt Q06710 1-450)” was run?
**A.** no binding
